According to patent US8492428B2 (priority 2005, dated 2013):
Some results were stated once for a whole list of compounds, not compound by compound.

Protein sequences, listed by entry. Tags and fused reporters are not part of them. Residues count along the entry.
UniProt P0DPI0, 2-448 limits assumed: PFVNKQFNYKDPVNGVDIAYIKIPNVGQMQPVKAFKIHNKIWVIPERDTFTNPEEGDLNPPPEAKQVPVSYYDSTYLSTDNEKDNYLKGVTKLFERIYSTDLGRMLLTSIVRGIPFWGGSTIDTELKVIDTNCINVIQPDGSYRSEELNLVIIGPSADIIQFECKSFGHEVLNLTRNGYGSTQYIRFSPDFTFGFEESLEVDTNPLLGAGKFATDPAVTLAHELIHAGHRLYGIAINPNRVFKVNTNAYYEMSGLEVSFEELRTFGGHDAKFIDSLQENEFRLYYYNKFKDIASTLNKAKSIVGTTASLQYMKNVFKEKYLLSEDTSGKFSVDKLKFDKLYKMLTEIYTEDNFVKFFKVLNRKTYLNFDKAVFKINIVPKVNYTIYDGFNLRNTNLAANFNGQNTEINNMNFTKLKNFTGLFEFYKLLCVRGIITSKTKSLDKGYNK

Target: endopeptidase (LC) of botulinum neurotoxin serotype A (BoNTA) (Clostridium botulinum, UniProt P0DPI0)
Type: biochemical
Settings: not given

Structure (SMILES)	inhibition of the endopeptidase of BoNTA, in words (comparisons)
O=C(Cc1cc(C(=O)c2ccc(Cl)cc2)sc1-c1ccccc1)NO [Compound 2, 2-[5-(4-Chlorobenzoyl)-2-phenylthiophene-3-yl]-N-hydroxyacetamide]	demonstrate inhibition
NNC(=O)Cc1cc(C(=O)c2ccc(I)c(N)c2)sc1-c1ccccc1 [Compound 7, [5-(3-Amino-4-iodobenzoyl)-2-phenylthiophene-3-yl]acetic acid hydrazide]	demonstrate inhibition
O=C(O)Cc1cc(C(=O)c2ccc(Cl)cc2)sc1-c1ccccc1 [Compound 1, [5-(4-Chlorobenzoyl)-2-phenylthiophene-3-yl]acetic acid]	demonstrate inhibition
O=C(O)Cc1cc(C(=O)c2ccc3cc(-c4ccccc4)[nH]c3c2)sc1-c1ccccc1 [Compound 8, [2-Phenyl-5-(2-phenyl-1H-indole-6-carbonyl)thiophene-3-yl]acetic acid]	demonstrate inhibition
NNC(=O)Cc1cc(C(=O)c2ccc(Br)cc2)sc1-c1ccccc1 [Compound 6, [5-(4-Bromobenzoyl)-2-phenylthiophene-3-yl]acetic acid hydrazide]	demonstrate inhibition
O=C(Cc1cc(C(=O)c2ccc(Br)cc2)sc1-c1ccccc1)NO [Compound 3, 2-[5-(4-Bromobenzoyl)-2-phenylthiophene-3-yl]-N-hydroxyacetamide]	demonstrate inhibition
O=C(Cc1cc(C(=O)c2ccc(I)c([N+](=O)[O-])c2)sc1-c1ccccc1)NO [Compound 5, 2-[5-(3-Nitro-4-iodobenzoyl)-2-phenylthiophene-3-yl]-N-hydroxyacetamide]	demonstrate inhibition
O=C(Cc1cc(C(=O)c2ccc3cc(-c4ccccc4)[nH]c3c2)sc1-c1ccccc1)NO [Compound 9, N-Hydroxy-2-[2-phenyl-5-(2-phenyl-1H-indole-6-carbonyl)thiophene-3-yl]acetamide]	demonstrate inhibition
Nc1cc(C(=O)c2cc(CC(=O)NO)c(-c3ccccc3)s2)ccc1I [Compound 4, 2-[5-(3-Amino-4-iodobenzoyl)-2-phenylthiophene-3-yl]-N-hydroxyacetamide]	demonstrate inhibition
I.NCCCCn1c(-c2ccccc2)cc2ccc(C(=O)c3cc(CC(=O)O)c(-c4ccccc4)s3)cc21 [Compound 10, {5-[1-(4-Aminobutyl)-2-phenyl-1H-indole-6-carbonyl]-2-phenylthiophene-3-yl}acetic acid hydroiodide]	demonstrate inhibition
Cl.NCCCCn1c(-c2ccccc2)cc2ccc(C(=O)c3cc(CC(=O)NN)c(-c4ccccc4)s3)cc21 [Compound 11, {5-[1-(4-Aminobutyl)-2-phenyl-1H-indole-6-carbonyl]-2-phenylthiophene-3-yl}acetic acid hydrazide hydrochloride]	demonstrate inhibition

Same assay, conditions: hydrochloride

Structure (SMILES)	inhibition of the endopeptidase of BoNTA, in words (comparisons)
Cl.NCCCCCCn1c(-c2ccccc2)cc2ccc(C(=O)c3cc(CC(=O)NO)c(-c4ccccc4)s3)cc21 [Compound 14, 2-{5-[1-(6-Aminohexyl)-2-phenyl-1H-indole-6-carbonyl]-2-phenylthiophene-3-yl}-N-hydroxyacetamide hydrochloride]	demonstrate inhibition
Cl.NCCCCCn1c(-c2ccccc2)cc2ccc(C(=O)c3cc(CC(=O)NO)c(-c4ccccc4)s3)cc21 [Compound 13, 2-{5-[1-(5-aminopentyl)-2-phenyl-1H-indole-6-carbonyl]-2-phenylthiophene-3-yl}-N-hydroxy-acetamide hydrochloride]	demonstrate inhibition
Cl.NCCCCn1c(-c2ccccc2)cc2ccc(C(=O)c3cc(CC(=O)NO)c(-c4ccccc4)s3)cc21 [Compound 12, 2-{5-[1-(4-Aminobutyl)-2-phenyl-1H-indole-6-carbonyl]-2-phenylthiophene-3-yl}-N-hydroxyacetamide hydrochloride]	demonstrate inhibition
